Laboratory results from paper doi:10.1101/2024.06.28.601222.
No constants are given. Whether binding was seen depends on the method and setting. In cells and extracts the contact can be indirect. Some binding calls cover weakened binding; strength is not graded here. Sequences can lack the tags named with a protein.

Chains of the proteins cited; added tags and fusions are not shown. Lines headed by an entry give the natural chain unless they say otherwise; changes in a name come on top.
UniProt Q39025: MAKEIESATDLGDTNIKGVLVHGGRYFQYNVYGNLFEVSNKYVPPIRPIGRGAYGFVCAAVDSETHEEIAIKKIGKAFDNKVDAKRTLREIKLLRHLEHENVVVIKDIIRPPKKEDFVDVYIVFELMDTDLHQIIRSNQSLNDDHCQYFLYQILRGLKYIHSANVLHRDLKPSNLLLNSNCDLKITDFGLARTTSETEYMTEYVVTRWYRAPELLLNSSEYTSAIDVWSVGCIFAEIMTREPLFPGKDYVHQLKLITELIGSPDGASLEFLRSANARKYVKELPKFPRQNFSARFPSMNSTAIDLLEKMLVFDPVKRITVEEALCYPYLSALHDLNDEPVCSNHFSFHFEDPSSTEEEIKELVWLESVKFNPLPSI

T1: GRF4 fused to the C-terminus part of Venus (from pBi2FC-C-GRF4-P2A:mTagBFP2) (Arabidopsis) (UniProt P46077)
T1 sequence: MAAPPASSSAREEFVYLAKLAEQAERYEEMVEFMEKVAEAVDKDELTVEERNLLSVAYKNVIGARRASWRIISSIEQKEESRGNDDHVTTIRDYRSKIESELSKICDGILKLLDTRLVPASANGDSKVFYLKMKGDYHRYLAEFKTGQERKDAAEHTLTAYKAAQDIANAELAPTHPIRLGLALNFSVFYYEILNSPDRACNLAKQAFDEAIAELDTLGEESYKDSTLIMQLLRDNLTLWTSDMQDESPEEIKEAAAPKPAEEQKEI

T2: GRF4 fused to the C-terminus part of Venus (from pBi2FC-C-GRF4-P2A:mTagBFP2) (Arabidopsis), P46077
T2 chain: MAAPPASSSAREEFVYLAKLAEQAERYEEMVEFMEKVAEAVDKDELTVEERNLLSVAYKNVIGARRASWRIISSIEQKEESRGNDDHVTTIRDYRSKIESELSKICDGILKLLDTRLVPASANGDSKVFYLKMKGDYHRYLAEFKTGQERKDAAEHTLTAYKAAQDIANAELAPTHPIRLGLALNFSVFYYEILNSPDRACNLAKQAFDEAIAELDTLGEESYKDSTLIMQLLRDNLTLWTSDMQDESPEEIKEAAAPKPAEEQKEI

B1: MPK12 fused to the N-terminus part of Venus (from pBi2FC-N-MPK12-P2A:mCherry) (protein, UniProt Q8GYQ5 1-372)
chain: MSGESSSGSTEHCIKVVPTHGGRYVQYNVYGQLFEVSRKYVPPIRPIGRGACGIVCAAVNSVTGEKVAIKKIGNAFDNIIDAKRTLREIKLLRHMDHENVITIKDIVRPPQRDIFNDVYIVYELMDTDLQRILRSNQTLTSDQCRFLVYQLLRGLKYVHSANILHRDLRPSNVLLNSKNELKIGDFGLARTTSDTDFMTEYVVTRWYRAPELLLNCSEYTAAIDIWSVGCILGEIMTGQPLFPGKDYVHQLRLITELVGSPDNSSLGFLRSDNARRYVRQLPRYPKQQFAARFPKMPTTAIDLLERMLVFDPNRRISVDEALGHAYLSPHHDVAKEPVCSTPFSFDFEHPSCTEEHIKELIYKESVKFNPDH
B2: MPK8 fused to the N-terminus part of Venus (from pBi2FC-N-MPK8-P2A:mCherry) (protein, UniProt Q9LM33 1-589)
chain: MGGGGNLVDGVRRWLFQRPSSSSSSSSSNNNNNNHEQPIFNSSSFSSSSNPNHSANSGELIIEEDLDFSGLTLINVPKRNHLPMDPHKKGETEFFTEYGEANRYQIQEVVGKGSYGVVASAVDSHTGERVAIKKINDVFEHVSDATRILREIKLLRLLRHPDVVEIKHIMLPPSRREFRDIYVVFELMESDLHQVIKANDDLTPEHYQFFLYQLLRGLKYVHAANVFHRDLKPKNILANADCKLKICDFGLARVSFNDAPTAIFWTDYVATRWYRAPELCGSFFSKYTPAIDIWSVGCIFAEMLLGKPLFPGKNVVHQLDLMTDFLGTPPPESISRIRNEKARRYLSSMRKKQPVPFSHKFPKADPLALRLLERLLAFDPKDRASAEDALADPYFSGLSNSEREPTTQPISKLEFDFERKKLVKDDVRELIYREILEYHPQMLEEYLRGGDQLSFMYPSGVDRFKRQFAHLEENQGKPGAAGGGRSTALHRHHASLPRERVPAPNGETAEESSDVERRAAAAVASTLESEEADNGGGYSARNLMKSASISGSKCIGVQSKTDKEDTIAEEEDNETVAELTDKVASLHNS
B3: MPK6 fused to the N-terminus part of Venus (from pBi2FC-N-MPK6-P2A:mCherry), Q39026 1-395 (protein)
chain: MDGGSGQPAADTEMTEAPGGFPAAAPSPQMPGIENIPATLSHGGRFIQYNIFGNIFEVTAKYKPPIMPIGKGAYGIVCSAMNSETNESVAIKKIANAFDNKIDAKRTLREIKLLRHMDHENIVAIRDIIPPPLRNAFNDVYIAYELMDTDLHQIIRSNQALSEEHCQYFLYQILRGLKYIHSANVLHRDLKPSNLLLNANCDLKICDFGLARVTSESDFMTEYVVTRWYRAPELLLNSSDYTAAIDVWSVGCIFMELMDRKPLFPGRDHVHQLRLLMELIGTPSEEELEFLNENAKRYIRQLPPYPRQSITDKFPTVHPLAIDLIEKMLTFDPRRRITVLDALAHPYLNSLHDISDEPECTIPFNFDFENHALSEEQMKELIYREALAFNPEYQQ

Experiments:
[1] = target: T1, GRF4 fused to the C-terminus part of Venus (from pBi2FC-C-GRF4-P2A:mTagBFP2) (Arabidopsis); assay: split reporter
[2] = target: T2, GRF4 fused to the C-terminus part of …; assay: split reporter; details: remark: other sources report otherwise

Molecule	binding [1]	binding [2]
MPK5 fused to the N-terminus part of Venus (from pBi2FC-N-MPK5-P2A:mCherry) (from UniProt Q39025 1-376)	binds	–
B1	no binding	–
B2	binds	–
B3	–	binds
